Test [1] concerns the target mTRPC4α C-terminus (aa 615-974) overexpressed in HEK293 cells (murine) (UniProt Q9QUQ5). The experiment in a line: GST pulldown from HEK293 lysate, anti-TRPC4 Western blot. For orientation: Immunoblotting shows a protein as a band on a membrane.
Test [2] has as its target C-terminus of mTRPC5, yeast two-hybrid bait (murine) (UniProt P04386+Q9QX29). The experiment in a line: directed yeast two-hybrid, growth on selective media.
In test [3] the target is mTRPC5 overexpressed in HEK 293 cells (murine) (UniProt Q9QX29). The experiment in a line: GST pulldown from HEK293 lysate, Western blot.
Test [4] deals with mTRPC4β overexpressed in HEK293 cells (murine) (UniProt Q9QUQ5). In words: GST pulldown from HEK293 lysate, Western blot.
Test [5] addresses mTRPC4α overexpressed in HEK293 cells (murine) (UniProt Q9QUQ5). The experiment in a line: GST pulldown from HEK293 lysate, Western blot.
Test [6] has as its target mTRPC4β overexpressed in HEK293 cells (murine) (UniProt Q9QUQ5). In words: GST pulldown from HEK293 lysate, anti-TRPC4 Western blot.
Test [7] concerns the target mTRPC4α overexpressed in HEK293 cells (murine) (UniProt Q9QUQ5). Described as above.
Test [8] addresses mTRPC5 overexpressed in HEK 293 cells (murine) (UniProt Q9QX29). The experiment in a line: GST pulldown from HEK293 lysate, anti-TRPC5 Western blot.
In test [9] the target is T1, mTRPC4α (615-974)/leucine zipper/pGBKT7 (murine, UniProt P04386 1-147; Q9QUQ5 615-974).
T1 construct: Yeast two-hybrid bait in yeast AH109; the order here follows the printed construct name behind the GAL4 DNA-BD; The zipper is said to direct tetramerization; also called mTRPC4a C-terminus
The experiment in a line: directed yeast two-hybrid, growth on selective media.

By UniProt entry, the sequences of proteins in these tests, tags left out. Where a name states a change or a piece, a line headed by the entry shows the natural chain unless it says otherwise. Chains listed by the source or under a name are the forms on record and can include a tag or linker. Residues count along the entry.
UniProt Q9QUQ5: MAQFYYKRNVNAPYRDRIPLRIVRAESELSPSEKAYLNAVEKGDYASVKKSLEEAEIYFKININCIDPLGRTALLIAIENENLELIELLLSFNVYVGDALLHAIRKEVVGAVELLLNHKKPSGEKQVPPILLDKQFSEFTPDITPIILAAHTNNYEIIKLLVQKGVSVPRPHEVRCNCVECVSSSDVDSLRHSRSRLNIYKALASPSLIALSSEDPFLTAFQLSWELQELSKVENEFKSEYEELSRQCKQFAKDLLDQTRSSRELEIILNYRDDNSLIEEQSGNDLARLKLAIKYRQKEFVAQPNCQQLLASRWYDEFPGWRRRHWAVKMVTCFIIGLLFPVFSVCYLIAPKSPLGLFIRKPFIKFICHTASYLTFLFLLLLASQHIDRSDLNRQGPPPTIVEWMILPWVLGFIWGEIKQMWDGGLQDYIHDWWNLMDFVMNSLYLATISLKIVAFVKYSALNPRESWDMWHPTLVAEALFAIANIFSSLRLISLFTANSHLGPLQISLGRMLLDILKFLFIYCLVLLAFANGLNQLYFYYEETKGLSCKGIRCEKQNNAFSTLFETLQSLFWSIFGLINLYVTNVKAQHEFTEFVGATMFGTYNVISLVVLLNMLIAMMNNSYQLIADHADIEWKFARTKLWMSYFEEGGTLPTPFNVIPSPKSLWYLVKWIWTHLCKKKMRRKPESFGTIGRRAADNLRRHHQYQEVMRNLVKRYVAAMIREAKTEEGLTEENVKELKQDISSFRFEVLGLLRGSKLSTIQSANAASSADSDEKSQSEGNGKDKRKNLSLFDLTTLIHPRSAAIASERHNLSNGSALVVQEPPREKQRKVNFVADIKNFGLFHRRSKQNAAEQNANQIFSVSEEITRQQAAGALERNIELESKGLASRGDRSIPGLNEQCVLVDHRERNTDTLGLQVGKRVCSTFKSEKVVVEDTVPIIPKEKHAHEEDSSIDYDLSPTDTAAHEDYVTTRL
mTRPC4α C-terminus (aa 615-974) overexpressed in HEK293 cells: residues 615-974 of Q9QUQ5
mTRPC4β overexpressed in HEK293 cells (Q9QUQ5, form named): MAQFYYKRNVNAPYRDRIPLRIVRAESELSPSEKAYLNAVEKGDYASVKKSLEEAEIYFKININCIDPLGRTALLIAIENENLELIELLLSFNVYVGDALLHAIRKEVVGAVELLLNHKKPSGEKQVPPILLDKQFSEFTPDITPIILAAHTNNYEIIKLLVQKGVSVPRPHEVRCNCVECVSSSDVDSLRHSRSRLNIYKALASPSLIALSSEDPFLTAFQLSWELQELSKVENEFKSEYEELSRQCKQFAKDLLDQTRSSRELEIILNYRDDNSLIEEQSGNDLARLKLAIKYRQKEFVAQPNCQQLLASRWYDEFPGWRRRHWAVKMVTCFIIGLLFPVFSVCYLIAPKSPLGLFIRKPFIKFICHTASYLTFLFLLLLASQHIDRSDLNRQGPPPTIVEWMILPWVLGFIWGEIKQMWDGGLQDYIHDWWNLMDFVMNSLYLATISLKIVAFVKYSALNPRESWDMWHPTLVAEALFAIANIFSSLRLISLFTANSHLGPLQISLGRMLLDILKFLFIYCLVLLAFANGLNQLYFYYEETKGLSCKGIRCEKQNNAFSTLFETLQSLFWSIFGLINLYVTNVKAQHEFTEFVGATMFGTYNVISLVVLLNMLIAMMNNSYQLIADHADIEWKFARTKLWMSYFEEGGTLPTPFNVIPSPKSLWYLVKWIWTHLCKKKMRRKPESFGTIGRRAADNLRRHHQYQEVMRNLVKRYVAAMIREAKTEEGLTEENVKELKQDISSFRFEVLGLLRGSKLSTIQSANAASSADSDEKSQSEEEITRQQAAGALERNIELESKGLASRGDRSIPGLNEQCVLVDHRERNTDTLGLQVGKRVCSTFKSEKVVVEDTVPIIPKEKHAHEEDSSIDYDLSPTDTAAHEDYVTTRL
UniProt P04386: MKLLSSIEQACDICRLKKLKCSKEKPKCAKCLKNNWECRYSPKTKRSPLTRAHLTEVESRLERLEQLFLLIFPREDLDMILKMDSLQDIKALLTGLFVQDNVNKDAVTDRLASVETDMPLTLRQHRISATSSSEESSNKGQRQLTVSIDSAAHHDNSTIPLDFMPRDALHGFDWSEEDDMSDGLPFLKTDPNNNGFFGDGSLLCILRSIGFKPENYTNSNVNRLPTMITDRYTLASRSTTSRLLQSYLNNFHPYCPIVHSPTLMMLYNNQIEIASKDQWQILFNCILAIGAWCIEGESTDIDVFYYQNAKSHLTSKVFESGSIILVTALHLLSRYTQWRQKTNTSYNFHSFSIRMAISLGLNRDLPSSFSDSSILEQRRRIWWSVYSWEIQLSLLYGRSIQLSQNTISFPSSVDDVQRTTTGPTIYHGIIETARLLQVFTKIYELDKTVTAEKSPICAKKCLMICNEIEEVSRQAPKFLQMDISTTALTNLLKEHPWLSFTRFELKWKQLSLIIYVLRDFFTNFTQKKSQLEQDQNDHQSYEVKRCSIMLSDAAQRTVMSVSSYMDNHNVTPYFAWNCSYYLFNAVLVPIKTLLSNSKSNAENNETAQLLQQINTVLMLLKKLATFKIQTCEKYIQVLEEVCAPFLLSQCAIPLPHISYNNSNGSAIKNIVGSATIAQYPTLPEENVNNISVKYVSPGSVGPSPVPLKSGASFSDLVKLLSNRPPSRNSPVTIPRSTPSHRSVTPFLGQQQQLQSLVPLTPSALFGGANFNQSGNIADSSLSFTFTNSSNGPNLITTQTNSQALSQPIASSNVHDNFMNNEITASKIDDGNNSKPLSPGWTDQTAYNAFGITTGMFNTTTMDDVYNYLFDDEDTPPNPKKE
UniProt Q9QX29: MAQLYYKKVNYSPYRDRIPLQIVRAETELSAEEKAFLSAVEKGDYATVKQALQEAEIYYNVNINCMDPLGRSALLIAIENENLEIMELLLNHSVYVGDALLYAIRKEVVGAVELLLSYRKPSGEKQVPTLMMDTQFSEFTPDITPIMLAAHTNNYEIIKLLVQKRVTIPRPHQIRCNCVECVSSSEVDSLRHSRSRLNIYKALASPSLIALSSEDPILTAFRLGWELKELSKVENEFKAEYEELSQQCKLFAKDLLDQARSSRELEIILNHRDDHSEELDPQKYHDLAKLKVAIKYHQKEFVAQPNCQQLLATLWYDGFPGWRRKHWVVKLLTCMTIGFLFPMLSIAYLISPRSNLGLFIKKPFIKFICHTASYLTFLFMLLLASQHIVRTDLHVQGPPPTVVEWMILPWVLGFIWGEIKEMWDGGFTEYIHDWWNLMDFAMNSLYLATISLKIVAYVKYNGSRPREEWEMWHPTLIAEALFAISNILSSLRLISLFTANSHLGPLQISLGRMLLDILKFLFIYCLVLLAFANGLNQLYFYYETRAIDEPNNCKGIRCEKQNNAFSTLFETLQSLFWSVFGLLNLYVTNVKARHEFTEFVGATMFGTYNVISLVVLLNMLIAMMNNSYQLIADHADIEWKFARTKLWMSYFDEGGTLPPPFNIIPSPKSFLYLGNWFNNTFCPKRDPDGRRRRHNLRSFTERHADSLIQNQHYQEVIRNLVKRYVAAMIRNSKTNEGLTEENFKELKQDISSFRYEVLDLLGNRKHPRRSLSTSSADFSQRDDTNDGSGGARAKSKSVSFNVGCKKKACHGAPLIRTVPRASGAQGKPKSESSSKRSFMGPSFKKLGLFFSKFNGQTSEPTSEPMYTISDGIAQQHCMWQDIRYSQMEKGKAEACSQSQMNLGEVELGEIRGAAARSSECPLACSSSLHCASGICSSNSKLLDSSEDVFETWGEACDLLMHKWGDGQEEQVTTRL

These are yes or no findings as the source states them, for the method shown. For some of these results: Binding seen in cells or lysates may run through a third protein. Some binding calls cover weakened binding; strength is not graded here. Sequences can lack the tags named with a protein.

B1: GST-SESTD1 (protein, human, UniProt Q86VW0 1-696, looked up, not shown: a dimerising Fc or GST)
chain: MEASVILPILKKKLAFLSGGKDRRSGLILTIPLCLEQTNMDELSVTLDYLLSIPSEKCKARGFTVIVDGRKSQWNVVKTVVVMLQNVVPAEVSLVCVVKPDEFWDKKVTHFCFWKEKDRLGFEVILVSANKLTRYIEPCQLTEDFGGSLTYDHMDWLNKRLVFEKFTKESTSLLDELALINNGSDKGNQQEKERSVDLNFLPSVDPETVLQTGHELLSELQQRRFNGSDGGVSWSPMDDELLAQPQVMKLLDSLREQYTRYQEVCRQRSKRTQLEEIQQKVMQVVNWLEGPGSEQLRAQWGIGDSIRASQALQQKHEEIESQHSEWFAVYVELNQQIAALLNAGDEEDLVELKSLQQQLSDVCYRQASQLEFRQNLLQAALEFHGVAQDLSQQLDGLLGMLCVDVAPADGASIQQTLKLLEEKLKSVDVGLQGLREKGQGLLDQISNQASWAYGKDVTIENKENVDHIQGVMEDMQLRKQRCEDMVDVRRLKMLQMVQLFKCEEDAAQAVEWLSELLDALLKTHIRLGDDAQETKVLLEKHRKFVDVAQSTYDYGRQLLQATVVLCQSLRCTSRSSGDTLPRLNRVWKQFTIASEERVHRLEMAIAFHSNAEKILQDCPEEPEAINDEEQFDEIEAVGKSLLDRLTVPVVYPDGTEQYFGSPSDMASTAENIRDRMKLVNLKRQQLRHPEMVTTES
As to B1, in test [1], the binding entry was “binds”.

B2: SESTD1-Spec 2 (aa 407-696), GAL4 activation domain fusion (protein, human, UniProt Q86VW0 407-696, looked up, not shown: large carriers)
chain: PADGASIQQTLKLLEEKLKSVDVGLQGLREKGQGLLDQISNQASWAYGKDVTIENKENVDHIQGVMEDMQLRKQRCEDMVDVRRLKMLQMVQLFKCEEDAAQAVEWLSELLDALLKTHIRLGDDAQETKVLLEKHRKFVDVAQSTYDYGRQLLQATVVLCQSLRCTSRSSGDTLPRLNRVWKQFTIASEERVHRLEMAIAFHSNAEKILQDCPEEPEAINDEEQFDEIEAVGKSLLDRLTVPVVYPDGTEQYFGSPSDMASTAENIRDRMKLVNLKRQQLRHPEMVTTES
Regarding B2, the binding entry in test [2] is reported as “binds”.

B3: GST-Spec 1 (aa 193-406) (protein, human, UniProt Q86VW0 193-406, looked up, not shown: a dimerising Fc or GST)
chain: ERSVDLNFLPSVDPETVLQTGHELLSELQQRRFNGSDGGVSWSPMDDELLAQPQVMKLLDSLREQYTRYQEVCRQRSKRTQLEEIQQKVMQVVNWLEGPGSEQLRAQWGIGDSIRASQALQQKHEEIESQHSEWFAVYVELNQQIAALLNAGDEEDLVELKSLQQQLSDVCYRQASQLEFRQNLLQAALEFHGVAQDLSQQLDGLLGMLCVDVA
On to B3, for which the binding result in test [3], in test [4], in [5], in test [6], in test [7] and in test [8] was “binds” in each case.

B4: SESTD1-Spec 1 (aa 193-406), GAL4 activation domain fusion (protein, human, UniProt Q86VW0 193-406, looked up, not shown: large carriers)
chain: ERSVDLNFLPSVDPETVLQTGHELLSELQQRRFNGSDGGVSWSPMDDELLAQPQVMKLLDSLREQYTRYQEVCRQRSKRTQLEEIQQKVMQVVNWLEGPGSEQLRAQWGIGDSIRASQALQQKHEEIESQHSEWFAVYVELNQQIAALLNAGDEEDLVELKSLQQQLSDVCYRQASQLEFRQNLLQAALEFHGVAQDLSQQLDGLLGMLCVDVA
In the case of B4, the binding entry in [9] and in [2] was “binds” throughout.

These data come from patent publication US20100330697A1, “COMPLEXES OF TRPC DOMAINS AND SESTD1 DOMAINS AND METHODS AND USES INVOLVING THE SAME” (SANOFI-AVENTIS, priority 2007, published 2010).
